These are yes or no findings as the source states them, for the method shown. In cells and extracts the contact can be indirect. Some results given as binding are weak or reduced against the parent protein; the word gives no strength.
What was measured:
HA-CDK4 = HA-CDK4 (UniProt P11802); assay: co-IP; ARK2 cells transiently transfected with pcDNA, HA-CDK4 or HA-CDK6 for 24 h; whole-cell lysates immunoprecipitated with anti-HA antibody; blot with anti-HA or anti-NPM/B23 (endogenous NPM/B23)
[1] = biological target: CDK6 (human (endogenous in ARK2)) (UniProt Q00534); assay: co-IP; ARK2 whole-cell lysates (WCE lysis buffer: 20 mM HEPES, 10% glycerol, 0.5% Triton X-100, 0.2 M NaCl, 1 mM EDTA, 1 mM EGTA) immunoprecipitated with anti-CDK6 antibody, protein G-sepharose, 4 °C; blot with anti-NPM/B23; both proteins endogenous; control IgG as mock; also done after 2 µM palbociclib for 24 h (interaction significantly weakened)
[2] = biological target: CDK6 (human (endogenous in ARK2)) (UniProt Q00534); assay: co-IP; ARK2 cells transfected with NPM/B23 (Thr199A) or NPM/B23 (Thr199D) for 24 h; lysates immunoprecipitated with anti-CDK6 antibody (endogenous CDK6); blot with anti-CDK6 or anti-NPM/B23; control IgG as mock

By UniProt entry, the sequences of proteins in these tests, tags left out. Where a name states a change or a piece, a line headed by the entry shows the natural chain unless it says otherwise. Chains listed by the source or under a name are the forms on record and can include a tag or linker.
UniProt P11802: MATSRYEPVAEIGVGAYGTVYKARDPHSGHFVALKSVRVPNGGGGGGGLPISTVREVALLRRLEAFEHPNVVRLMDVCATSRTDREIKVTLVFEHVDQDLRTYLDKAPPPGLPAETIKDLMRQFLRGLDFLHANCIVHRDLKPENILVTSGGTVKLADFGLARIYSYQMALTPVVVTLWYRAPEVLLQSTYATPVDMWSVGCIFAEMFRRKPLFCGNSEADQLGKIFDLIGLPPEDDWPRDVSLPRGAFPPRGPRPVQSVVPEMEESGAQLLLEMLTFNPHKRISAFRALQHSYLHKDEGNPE
UniProt Q00534: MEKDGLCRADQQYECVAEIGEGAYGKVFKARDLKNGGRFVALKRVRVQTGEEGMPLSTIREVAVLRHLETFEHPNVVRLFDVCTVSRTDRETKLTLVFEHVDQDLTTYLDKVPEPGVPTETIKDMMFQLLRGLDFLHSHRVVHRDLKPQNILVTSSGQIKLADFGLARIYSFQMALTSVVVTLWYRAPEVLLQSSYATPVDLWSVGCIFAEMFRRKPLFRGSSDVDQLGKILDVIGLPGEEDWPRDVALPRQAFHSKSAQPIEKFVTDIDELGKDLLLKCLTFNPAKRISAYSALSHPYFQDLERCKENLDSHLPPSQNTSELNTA
UniProt P06748: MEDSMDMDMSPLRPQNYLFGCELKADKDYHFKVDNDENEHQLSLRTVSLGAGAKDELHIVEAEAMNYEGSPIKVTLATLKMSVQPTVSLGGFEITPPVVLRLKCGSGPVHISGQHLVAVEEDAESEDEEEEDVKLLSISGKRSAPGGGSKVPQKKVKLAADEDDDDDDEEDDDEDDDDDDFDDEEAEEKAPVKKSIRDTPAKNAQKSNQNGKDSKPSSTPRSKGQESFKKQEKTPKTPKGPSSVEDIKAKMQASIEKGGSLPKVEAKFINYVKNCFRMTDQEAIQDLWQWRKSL
phospho-mimetic NPM/B23 mutant (Thr199D) (P06748, form named): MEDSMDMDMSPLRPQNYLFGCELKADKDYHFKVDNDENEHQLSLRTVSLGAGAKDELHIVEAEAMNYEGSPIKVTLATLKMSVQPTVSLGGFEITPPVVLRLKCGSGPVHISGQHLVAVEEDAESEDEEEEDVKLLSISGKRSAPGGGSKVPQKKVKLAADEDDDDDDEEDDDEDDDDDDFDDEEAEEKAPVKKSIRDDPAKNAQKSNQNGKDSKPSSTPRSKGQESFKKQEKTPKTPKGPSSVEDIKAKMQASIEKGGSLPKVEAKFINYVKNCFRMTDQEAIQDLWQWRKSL

binding (HA-CDK4) | binding [1] | binding [2] | Substance
no binding | binds |  | NPM/B23 (nucleophosmin) (from UniProt P06748 1-294)
 |  | binds | phospho-mimetic NPM/B23 mutant (Thr199D) (from UniProt P06748 1-294)
